Measurements: the supplement of paper PMC10849652
This is one part of the list.

By UniProt entry, the sequences of proteins in these tests, tags left out. Where a name states a change or a piece, a line headed by the entry shows the natural chain unless it says otherwise.
UniProt Q96GE9: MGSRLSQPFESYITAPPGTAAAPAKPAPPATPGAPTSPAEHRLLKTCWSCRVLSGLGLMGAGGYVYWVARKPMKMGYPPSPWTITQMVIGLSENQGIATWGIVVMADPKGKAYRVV
UniProt Q96M86: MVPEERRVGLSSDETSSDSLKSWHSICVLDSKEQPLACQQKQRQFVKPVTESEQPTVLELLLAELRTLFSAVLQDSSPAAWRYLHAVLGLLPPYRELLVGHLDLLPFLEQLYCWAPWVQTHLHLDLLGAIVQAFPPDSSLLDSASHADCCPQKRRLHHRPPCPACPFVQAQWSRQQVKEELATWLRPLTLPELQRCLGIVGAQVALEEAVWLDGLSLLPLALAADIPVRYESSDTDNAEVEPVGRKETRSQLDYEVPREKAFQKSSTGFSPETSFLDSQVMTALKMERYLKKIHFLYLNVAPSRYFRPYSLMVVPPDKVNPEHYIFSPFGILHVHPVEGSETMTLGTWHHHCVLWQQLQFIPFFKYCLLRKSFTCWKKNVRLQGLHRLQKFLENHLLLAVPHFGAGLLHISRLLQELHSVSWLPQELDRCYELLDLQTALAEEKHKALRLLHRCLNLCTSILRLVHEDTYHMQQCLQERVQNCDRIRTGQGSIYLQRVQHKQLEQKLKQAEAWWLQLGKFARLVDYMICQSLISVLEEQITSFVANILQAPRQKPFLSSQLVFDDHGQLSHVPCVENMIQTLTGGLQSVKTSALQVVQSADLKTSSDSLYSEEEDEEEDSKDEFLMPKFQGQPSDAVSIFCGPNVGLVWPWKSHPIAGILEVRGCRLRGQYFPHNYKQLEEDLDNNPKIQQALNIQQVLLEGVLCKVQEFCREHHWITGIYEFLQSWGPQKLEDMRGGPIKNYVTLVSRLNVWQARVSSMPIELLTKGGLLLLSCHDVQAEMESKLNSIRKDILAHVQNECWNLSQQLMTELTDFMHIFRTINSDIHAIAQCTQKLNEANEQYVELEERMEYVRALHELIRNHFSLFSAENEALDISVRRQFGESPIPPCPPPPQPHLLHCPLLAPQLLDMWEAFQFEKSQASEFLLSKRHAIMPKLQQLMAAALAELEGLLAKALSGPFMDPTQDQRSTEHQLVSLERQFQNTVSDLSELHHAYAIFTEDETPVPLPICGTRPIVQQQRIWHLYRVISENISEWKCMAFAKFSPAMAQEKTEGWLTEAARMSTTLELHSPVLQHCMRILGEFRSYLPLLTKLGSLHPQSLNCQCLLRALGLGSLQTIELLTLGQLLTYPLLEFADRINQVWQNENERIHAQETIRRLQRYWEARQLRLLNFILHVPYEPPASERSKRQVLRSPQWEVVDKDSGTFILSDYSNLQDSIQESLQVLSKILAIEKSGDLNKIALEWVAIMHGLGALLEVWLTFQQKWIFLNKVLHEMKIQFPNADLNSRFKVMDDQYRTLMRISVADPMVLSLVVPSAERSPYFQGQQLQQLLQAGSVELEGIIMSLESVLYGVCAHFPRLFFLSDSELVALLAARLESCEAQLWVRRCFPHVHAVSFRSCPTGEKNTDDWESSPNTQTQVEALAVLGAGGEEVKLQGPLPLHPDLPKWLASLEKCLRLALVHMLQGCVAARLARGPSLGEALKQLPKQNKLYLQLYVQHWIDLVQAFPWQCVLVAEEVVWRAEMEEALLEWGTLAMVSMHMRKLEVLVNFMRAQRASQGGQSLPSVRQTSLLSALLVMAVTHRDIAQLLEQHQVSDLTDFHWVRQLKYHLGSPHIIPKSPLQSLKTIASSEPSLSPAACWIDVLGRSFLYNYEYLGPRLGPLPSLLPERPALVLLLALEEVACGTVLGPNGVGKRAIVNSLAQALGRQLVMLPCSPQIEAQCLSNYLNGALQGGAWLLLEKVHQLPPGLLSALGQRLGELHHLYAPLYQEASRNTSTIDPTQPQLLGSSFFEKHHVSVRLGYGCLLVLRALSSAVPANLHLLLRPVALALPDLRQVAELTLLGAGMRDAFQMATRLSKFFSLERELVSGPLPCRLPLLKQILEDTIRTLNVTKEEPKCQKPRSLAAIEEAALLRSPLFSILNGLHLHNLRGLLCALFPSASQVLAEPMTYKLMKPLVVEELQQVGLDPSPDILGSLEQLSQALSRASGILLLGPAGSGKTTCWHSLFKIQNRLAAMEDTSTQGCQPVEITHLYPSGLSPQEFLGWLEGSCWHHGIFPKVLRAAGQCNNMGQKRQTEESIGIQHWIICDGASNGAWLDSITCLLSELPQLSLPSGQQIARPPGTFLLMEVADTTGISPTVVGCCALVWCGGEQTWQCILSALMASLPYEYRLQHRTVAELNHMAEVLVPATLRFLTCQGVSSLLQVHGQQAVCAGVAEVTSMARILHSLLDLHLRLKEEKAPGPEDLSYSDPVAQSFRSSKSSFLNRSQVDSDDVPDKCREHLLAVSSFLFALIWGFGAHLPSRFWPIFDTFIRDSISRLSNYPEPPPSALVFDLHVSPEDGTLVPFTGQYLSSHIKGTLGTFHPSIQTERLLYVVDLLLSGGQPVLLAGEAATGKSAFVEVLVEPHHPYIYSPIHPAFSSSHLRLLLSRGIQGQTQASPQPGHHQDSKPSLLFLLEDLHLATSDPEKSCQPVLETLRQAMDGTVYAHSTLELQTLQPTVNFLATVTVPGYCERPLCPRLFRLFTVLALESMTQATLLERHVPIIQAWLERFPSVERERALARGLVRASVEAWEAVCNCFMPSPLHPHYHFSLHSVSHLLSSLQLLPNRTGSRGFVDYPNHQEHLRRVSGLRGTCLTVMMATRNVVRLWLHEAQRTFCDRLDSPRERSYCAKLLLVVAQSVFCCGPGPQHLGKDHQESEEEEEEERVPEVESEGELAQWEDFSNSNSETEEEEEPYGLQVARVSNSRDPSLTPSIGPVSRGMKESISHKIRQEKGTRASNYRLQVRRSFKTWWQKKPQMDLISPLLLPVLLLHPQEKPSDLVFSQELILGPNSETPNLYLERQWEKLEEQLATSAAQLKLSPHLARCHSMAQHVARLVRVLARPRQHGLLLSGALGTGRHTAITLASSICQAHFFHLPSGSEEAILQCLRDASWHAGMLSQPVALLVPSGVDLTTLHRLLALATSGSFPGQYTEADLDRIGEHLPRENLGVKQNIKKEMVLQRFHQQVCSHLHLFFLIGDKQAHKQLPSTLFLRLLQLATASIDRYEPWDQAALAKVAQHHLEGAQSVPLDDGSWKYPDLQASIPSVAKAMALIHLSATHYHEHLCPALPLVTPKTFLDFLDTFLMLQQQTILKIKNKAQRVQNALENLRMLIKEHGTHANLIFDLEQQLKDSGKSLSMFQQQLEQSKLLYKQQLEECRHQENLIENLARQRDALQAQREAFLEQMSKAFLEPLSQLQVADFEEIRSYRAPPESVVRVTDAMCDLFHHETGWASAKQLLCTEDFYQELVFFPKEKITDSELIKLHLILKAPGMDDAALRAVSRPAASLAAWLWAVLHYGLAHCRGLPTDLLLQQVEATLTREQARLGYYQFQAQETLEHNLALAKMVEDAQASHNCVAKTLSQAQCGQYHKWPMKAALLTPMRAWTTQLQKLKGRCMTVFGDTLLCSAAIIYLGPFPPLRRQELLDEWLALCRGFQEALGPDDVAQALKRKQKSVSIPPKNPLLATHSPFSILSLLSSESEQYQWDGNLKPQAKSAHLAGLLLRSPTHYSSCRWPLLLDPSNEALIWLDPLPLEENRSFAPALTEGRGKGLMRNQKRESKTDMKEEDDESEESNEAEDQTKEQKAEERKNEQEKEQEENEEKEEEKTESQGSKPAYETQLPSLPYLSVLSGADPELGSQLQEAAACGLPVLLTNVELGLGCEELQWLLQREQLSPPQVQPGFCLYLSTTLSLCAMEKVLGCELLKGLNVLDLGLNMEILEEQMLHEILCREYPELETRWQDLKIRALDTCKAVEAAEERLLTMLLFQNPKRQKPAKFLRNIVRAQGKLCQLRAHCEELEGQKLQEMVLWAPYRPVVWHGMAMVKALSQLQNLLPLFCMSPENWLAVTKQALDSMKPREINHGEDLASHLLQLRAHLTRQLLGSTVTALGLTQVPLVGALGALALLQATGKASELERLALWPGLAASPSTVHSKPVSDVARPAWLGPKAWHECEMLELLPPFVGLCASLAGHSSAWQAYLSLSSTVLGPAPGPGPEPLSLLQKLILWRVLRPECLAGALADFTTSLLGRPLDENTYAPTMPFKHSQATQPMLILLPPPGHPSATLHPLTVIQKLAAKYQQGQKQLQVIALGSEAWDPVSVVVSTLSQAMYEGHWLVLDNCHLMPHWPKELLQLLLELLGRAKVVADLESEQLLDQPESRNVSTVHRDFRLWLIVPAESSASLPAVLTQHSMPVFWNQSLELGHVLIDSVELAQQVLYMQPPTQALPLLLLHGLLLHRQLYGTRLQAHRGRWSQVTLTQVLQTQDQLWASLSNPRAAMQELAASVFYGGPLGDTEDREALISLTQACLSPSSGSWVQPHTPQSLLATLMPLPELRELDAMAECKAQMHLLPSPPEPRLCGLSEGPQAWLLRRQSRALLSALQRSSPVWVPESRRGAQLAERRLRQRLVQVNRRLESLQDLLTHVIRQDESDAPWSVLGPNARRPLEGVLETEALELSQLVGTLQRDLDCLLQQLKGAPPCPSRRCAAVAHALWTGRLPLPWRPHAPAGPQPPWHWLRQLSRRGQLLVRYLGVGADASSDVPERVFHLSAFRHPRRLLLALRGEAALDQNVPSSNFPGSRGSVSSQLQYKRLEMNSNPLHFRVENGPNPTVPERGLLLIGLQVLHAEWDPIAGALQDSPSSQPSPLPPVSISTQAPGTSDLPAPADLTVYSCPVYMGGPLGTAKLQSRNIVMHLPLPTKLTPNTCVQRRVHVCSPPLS
UniProt P51530: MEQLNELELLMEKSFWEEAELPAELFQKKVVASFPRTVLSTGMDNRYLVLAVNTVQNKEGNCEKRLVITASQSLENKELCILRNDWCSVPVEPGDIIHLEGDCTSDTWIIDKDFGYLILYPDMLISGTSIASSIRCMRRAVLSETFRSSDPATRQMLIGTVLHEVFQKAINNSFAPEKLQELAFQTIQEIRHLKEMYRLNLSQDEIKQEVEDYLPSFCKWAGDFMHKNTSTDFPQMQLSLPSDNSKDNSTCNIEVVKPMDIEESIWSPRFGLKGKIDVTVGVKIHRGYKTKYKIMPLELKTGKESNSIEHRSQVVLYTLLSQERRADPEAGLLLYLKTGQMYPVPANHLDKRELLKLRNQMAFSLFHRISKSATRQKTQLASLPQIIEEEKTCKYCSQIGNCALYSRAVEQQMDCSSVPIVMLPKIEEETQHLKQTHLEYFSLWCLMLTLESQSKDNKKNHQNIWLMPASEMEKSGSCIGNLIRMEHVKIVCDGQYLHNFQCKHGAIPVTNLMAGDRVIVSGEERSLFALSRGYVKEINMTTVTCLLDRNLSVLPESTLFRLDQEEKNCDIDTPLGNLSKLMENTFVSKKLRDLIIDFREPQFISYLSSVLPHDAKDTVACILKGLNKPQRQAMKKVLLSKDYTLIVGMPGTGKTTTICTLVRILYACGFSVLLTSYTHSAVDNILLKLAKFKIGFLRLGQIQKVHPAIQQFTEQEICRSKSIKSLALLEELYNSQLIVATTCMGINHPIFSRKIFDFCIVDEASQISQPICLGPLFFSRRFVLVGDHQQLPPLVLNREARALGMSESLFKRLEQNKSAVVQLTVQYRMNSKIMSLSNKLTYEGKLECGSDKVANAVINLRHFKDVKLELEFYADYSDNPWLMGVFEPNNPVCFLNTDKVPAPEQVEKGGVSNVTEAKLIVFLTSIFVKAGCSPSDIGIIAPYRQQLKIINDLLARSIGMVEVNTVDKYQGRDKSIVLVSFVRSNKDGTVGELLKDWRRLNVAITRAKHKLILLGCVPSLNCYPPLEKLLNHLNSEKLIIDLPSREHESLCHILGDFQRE
UniProt Q9UBS3: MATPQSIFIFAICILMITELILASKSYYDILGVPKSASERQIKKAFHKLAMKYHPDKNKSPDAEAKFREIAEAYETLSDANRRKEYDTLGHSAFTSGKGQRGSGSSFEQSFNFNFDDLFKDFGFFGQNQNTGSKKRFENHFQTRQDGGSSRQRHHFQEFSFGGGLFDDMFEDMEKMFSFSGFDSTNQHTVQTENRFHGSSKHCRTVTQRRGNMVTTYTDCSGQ
UniProt Q9H3H5: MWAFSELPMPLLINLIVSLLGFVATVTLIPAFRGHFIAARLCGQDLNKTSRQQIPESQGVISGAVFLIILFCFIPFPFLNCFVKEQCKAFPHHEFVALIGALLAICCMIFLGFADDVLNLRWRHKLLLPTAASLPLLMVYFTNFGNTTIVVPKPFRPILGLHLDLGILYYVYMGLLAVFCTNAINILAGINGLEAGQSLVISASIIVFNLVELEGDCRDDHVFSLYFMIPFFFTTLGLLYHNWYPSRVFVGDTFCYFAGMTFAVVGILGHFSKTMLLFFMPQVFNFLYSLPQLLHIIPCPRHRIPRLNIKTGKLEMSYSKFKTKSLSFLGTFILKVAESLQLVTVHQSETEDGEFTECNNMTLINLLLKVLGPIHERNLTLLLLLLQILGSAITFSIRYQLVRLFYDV

Key:
Assay in all cases: log2 fold change, soluble protein after heating vs DMSO (PISA); higher = thermal stabilisation; K562 lysate, 10 uM; active = over 0.2 and 3.5 SD of the protein, either way, in both replicates (recomputed)
vemurafenib = compound: CCCS(=O)(=O)Nc1ccc(F)c(C(=O)c2c[nH]c3ncc(-c4ccc(Cl)cc4)cc23)c1F [vemurafenib]
In short: (§1)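 K562 pellets were dounce-homogenised in PBS pH 7.4 with 1 mM MgCl2, and the crude extract at 1 mg/mL protein was treated with 10 μM compound for 30 min. Aliquots were heated for 3 min across 48°C-58°C, pooled, and brought to 0.5% NP-40 at 4°C; soluble protein was the supernatant after 21,000xg for 90 min. Soluble protein was quantified by TMTpro 16plex LC-MS/MS with channel sums equalised, and reported as log2 fold change in thermal stability against DMSO controls, with values from duplicates.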

[1] = compound: CC[C@@H]1C(=O)N(C)c2cnc(Nc3ccc(C(=O)NC4CCN(C)CC4)cc3OC)nc2N1C1CCCC1
In short: as §1

[2] = compound: CCn1c(C(=O)N(C2CC2)C2CC2)cc2c3c(ncn3C)c(Nc3cc(C)n(C)n3)nc21
In short: as §1

[3] = compound: CCn1cc(-c2ccnc3[nH]c(-c4cccc(CN(C)C)c4)cc23)c(-c2ccc(NC(=O)N(C)C)cc2)n1
In short: as §1

[4] = compound: CN1CCC(CNc2ccc3ncc(-c4cccc(OC(F)(F)F)c4)n3n2)CC1
In short: as §1

sotrastaurin = compound: CN1CCN(c2nc(C3=C(c4c[nH]c5ccccc45)C(=O)NC3=O)c3ccccc3n2)CC1 [sotrastaurin]
In short: as §1

[5] = compound: CCCS(=O)(=O)Nc1ccc(F)c(C(=O)c2c[nH]c3ncc(Cl)cc23)c1F
In short: as §1

volasertib = compound: CC[C@@H]1C(=O)N(C)c2cnc(Nc3ccc(C(=O)N[C@H]4CC[C@H](N5CCN(CC6CC6)CC5)CC4)cc3OC)nc2N1C(C)C [volasertib]
In short: as §1

saracatinib = compound: CN1CCN(CCOc2cc(OC3CCOCC3)c3c(Nc4c(Cl)ccc5c4OCO5)ncnc3c2)CC1 [saracatinib]
In short: as §1

barasertib = compound: CCN(CCCOc1ccc2c(Nc3cc(CC(=O)Nc4cccc(F)c4)[nH]n3)ncnc2c1)CCOP(=O)(O)O [barasertib]
In short: as §1

Target	log2 fold change (vemurafenib)	log2 fold change [1]	log2 fold change [2]	log2 fold change [3]	log2 fold change [4]	log2 fold change (sotrastaurin)	log2 fold change [5]	log2 fold change (volasertib)	log2 fold change (saracatinib)	log2 fold change (barasertib)
DHX32 (UniProt Q7L7V1)	inactive: 0.173	inactive: -0.026	inactive: -0.106	inactive: 0.137	inactive: 0.003	inactive: -0.011				
DMAC1 (UniProt Q96GE9)	inactive: -0.094		inactive: 0.007	inactive: 0.041	inactive: -0.142					
DOCK2 (UniProt Q92608)	inactive: 0.029	inactive: -0.1	inactive: 0.071	inactive: -0.157	inactive: 0.085	inactive: 0.063	inactive: 0.024	inactive: -0.091	inactive: 0.043	
DNAJB11 (UniProt Q9UBS4)	inactive: 0.017	inactive: 0.055	inactive: -0.018	inactive: -0.02	inactive: 0.042	inactive: 0.046	inactive: 0.002	inactive: 0.019	inactive: 0.027	inactive: -0.003
DNAL1 (UniProt Q4LDG9)	inactive: 0.026	inactive: 0.34	inactive: -0.03	inactive: 0.137	inactive: 0.042	inactive: -0.013			inactive: 0.062	inactive: -0.103
DMAC2 isoform 4 (UniProt Q9NW81)	inactive: 0.085	inactive: -0.043	inactive: -0.032	inactive: -0.017	inactive: -0.016	inactive: 0.075	inactive: 0.039	inactive: 0.006		inactive: -0.076
DNAJA3 isoform 2 (UniProt Q96EY1)	inactive: 0.212	inactive: 0.07	inactive: -0.087						inactive: 0.001	inactive: 0.019
DNAJC24 (UniProt Q6P3W2)	inactive: 0.141	inactive: 0.017	inactive: 0.002	inactive: 0.196	active: -0.309	inactive: -0.032	inactive: -0.038	inactive: 0.027	inactive: -0.013	
DNMT3B (UniProt Q9UBC3)	inactive: 0.196	inactive: -0.21	inactive: 0.003							
DIS3L (UniProt Q8TF46)	inactive: -0.033	inactive: -0.003	inactive: 0.026	inactive: -0.02	inactive: -0.013	inactive: 0.037	inactive: 0.075	inactive: -0.048	inactive: 0.103	inactive: 0.025
DNHD1 (UniProt Q96M86)	inactive: 0.078		inactive: -0.118			inactive: 0.022	inactive: -0.003	inactive: 0.005		inactive: 0.075
DNA2 (UniProt P51530)	inactive: -0.094	inactive: -0.053	inactive: 0.051	inactive: 0.03	inactive: 0.022	inactive: 0.073			inactive: 0.008	
DLG5 (UniProt Q8TDM6)	inactive: 0.089								inactive: -0.16	inactive: 0.098
DNAH5 (UniProt Q8TE73)	inactive: 0.007		inactive: -0.035	active: -0.481	inactive: 0.122		inactive: 0.074	inactive: 0.02	inactive: 0.007	inactive: 0.006
DNM1 (UniProt Q05193)			inactive: -0.01	inactive: 0.005	inactive: -0.011	inactive: 0.156	inactive: 0.09	inactive: -0.075	inactive: 0.137	inactive: 0.028
DHTKD1 (UniProt Q96HY7)			inactive: 0.049	inactive: -0.017	inactive: -0.153	inactive: 0.065	inactive: 0.059	inactive: 0.073		inactive: -0.076
DNAJC19, A0A2R8Y839						inactive: 0.008				
DNMT3A (UniProt Q9Y6K1)				inactive: 0.2	inactive: 0.188		inactive: 0.069	inactive: 0.32		
DNPEP (UniProt B9ZVU2)		inactive: 0.098	inactive: 0.023			inactive: -0.064	inactive: 0.07	inactive: -0.031	inactive: 0.039	
DOK2 (UniProt O60496)			inactive: 0.133	inactive: 0.08	inactive: -0.02		inactive: -0.154	inactive: -0.092		
DNMT1 (UniProt P26358)			inactive: -0.026	inactive: 0.141	inactive: -0.07	inactive: 0.13				inactive: -0.116
DLX2 (UniProt Q07687)			inactive: -0.246							
DNLZ (UniProt Q5SXM8)			inactive: 0.036	inactive: 0	inactive: -0.129		inactive: -0.095	inactive: 0.068		
DHRSX (UniProt Q8N5I4)	inactive: -0.14		inactive: -0.046						inactive: -0.019	

Target	log2 fold change (vemurafenib)	log2 fold change [1]	log2 fold change [2]	log2 fold change [3]	log2 fold change [4]	log2 fold change (sotrastaurin)	log2 fold change [5]	log2 fold change (volasertib)	log2 fold change (saracatinib)	log2 fold change (barasertib)
DHPS (UniProt M0R1T2)				inactive: 0.028	inactive: -0.048					
DGCR6L (UniProt Q9BY27)			inactive: 0.114	inactive: -0.035	inactive: 0.052	inactive: 0.011				
DOCK6 (UniProt Q96HP0)									inactive: -0.043	
DLGAP5 isoform 3 (UniProt Q15398)				inactive: -0.165	inactive: -0.03				inactive: 0.165	inactive: 0.281
DOCK11, A0A0J9YW64				inactive: -0.079	inactive: 0.11					inactive: 0.084
DNAJB9 (UniProt Q9UBS3)			inactive: 0.175			inactive: -0.015	inactive: 0.02	inactive: -0.183	inactive: 0.051	
DLG1 isoform 3 (UniProt Q12959)			inactive: -0.202							inactive: 0.108
DLC1 (UniProt Q96QB1)		inactive: 0.097	inactive: 0.081			inactive: -0.019				inactive: -0.017
DNAJB14 (UniProt H7C494)			inactive: 0.001	inactive: 0.013	inactive: -0.022	inactive: -0.045				
DPAGT1 (UniProt Q9H3H5)			inactive: 0.161	inactive: -0.121	inactive: 0.039	inactive: -0.007	inactive: 0.041	inactive: 0.006		inactive: 0.015
DOP1A (UniProt Q5JWR5)		inactive: 0.054				inactive: -0.028			inactive: 0.106	inactive: 0.04
DNAJC16 (UniProt Q9Y2G8)			inactive: -0.184	inactive: 0.142	inactive: -0.036	inactive: 0.004			inactive: 0.026	inactive: 0.171
DIPK1A (UniProt Q5T7M9)		inactive: -0.03								
DHRS13 (UniProt Q6UX07)			inactive: 0.077			inactive: 0.095	inactive: 0.291	inactive: -0.274	inactive: -0.031	inactive: 0.236
DOCK5 (UniProt Q9H7D0)							inactive: -0.004	inactive: -0.176		
DNM2 isoform 4 (UniProt P50570)		inactive: -0.018	inactive: -0.014	inactive: -0.153	inactive: 0.021	inactive: -0.031	inactive: -0.001	inactive: -0.031	inactive: -0.047	
DNASE1L1 (UniProt P49184)			inactive: -0.255	inactive: 0.031	inactive: 0.111		inactive: 0.174	inactive: 0.056		
DGLUCY isoform 2 (UniProt Q7Z3D6)						inactive: 0.075				
DHX33 (UniProt Q9H6R0)				inactive: 0.092	inactive: -0.006		inactive: 0.14	inactive: 0.046	inactive: -0.056	
DNAJB1 (UniProt M0R128)			inactive: -0.162	inactive: -0.139	inactive: 0.042		inactive: 0.01	inactive: 0.074		inactive: 0.057
DOLK (UniProt Q9UPQ8)				inactive: 0	inactive: -0.232					
DNAJC14 (UniProt Q6Y2X3)		inactive: -0.125	inactive: -0.049						inactive: 0	
DONSON (UniProt Q9NYP3)			inactive: -0.036	inactive: -0.026	inactive: -0.206	inactive: 0.016	inactive: 0.017	inactive: 0.026	inactive: 0.013	inactive: -0.03
DMD isoform 14 (UniProt P11532)			inactive: -0.397	inactive: -0.151	inactive: -0.112	inactive: 0.065			inactive: -0.093	inactive: -0.29

Given with bars between the fields: entries from further up
Target | log2 fold change (vemurafenib) | log2 fold change [1] | log2 fold change [2] | log2 fold change [3] | log2 fold change [4] | log2 fold change (sotrastaurin) | log2 fold change [5] | log2 fold change (volasertib) | log2 fold change (saracatinib) | log2 fold change (barasertib)
DNM2 isoform 4 (UniProt P50570) |  | inactive: -0.018 | inactive: -0.014 | inactive: -0.153 | inactive: 0.021 | inactive: -0.031 | inactive: -0.001 | inactive: -0.031 | inactive: -0.047 | 
DNASE1L1 (UniProt P49184) |  |  | inactive: -0.255 | inactive: 0.031 | inactive: 0.111 |  | inactive: 0.174 | inactive: 0.056 |  | 
DGLUCY isoform 2 (UniProt Q7Z3D6) |  |  |  |  |  | inactive: 0.075 |  |  |  | 
